Binding data for one molecule are collected here from publication PMC3419727, “Identifying the Hotspots on the Top Faces of WD40-Repeat Proteins from Their Primary Sequences by β-Bulges and DHSW Tetrads” (PLoS ONE, 2012).

No constants are given. Whether binding was seen depends on the method and setting. Some binding calls cover weakened binding; strength is not graded here.

In the experiment the target is T1, S. japonicus Tup11 WD40 domain (301–630) Arg384Ala (S. japonicus) (UniProt B6JV84).
T1 sequence: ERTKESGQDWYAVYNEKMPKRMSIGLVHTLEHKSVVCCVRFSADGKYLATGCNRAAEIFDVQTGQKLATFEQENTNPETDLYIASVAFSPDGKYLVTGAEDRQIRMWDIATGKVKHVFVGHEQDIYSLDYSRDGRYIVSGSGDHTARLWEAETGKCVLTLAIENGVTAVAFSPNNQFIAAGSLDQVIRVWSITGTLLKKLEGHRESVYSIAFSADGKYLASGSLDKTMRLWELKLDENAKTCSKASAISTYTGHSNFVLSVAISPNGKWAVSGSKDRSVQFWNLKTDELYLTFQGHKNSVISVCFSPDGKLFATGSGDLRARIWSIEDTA
Kind of experiment: ITC; Fep1 (~1.4 mM) injected, 2 µl each time, into Tup11 WT or mutant (~0.2 mM); 25°C; 1×PBS pH 7.4, 150 mM NaCl; iTC200 (MicroCal); Fep1 into buffer subtracted as background; both purified. In general terms: ITC needs no label: the signal is the heat of the interaction.

B1: C-terminal region of S. pombe Fep1 (amino acids 319–564) (domain or fragment, UniProt Q10134 319-564, looked up)
chain: AAGEPDNNGKVYYSYGPTQEQSILPLPENKHEGLPPYQNEYVPNGIRANQVVYPGQLVAVGNDSSKQLSESTTSNTDNNGVATANQSNPLGMKFHLPPILPVGESVCLPPRTSAKPRIAEGIASLLNPEEPPSNSDKQPSMSNGPKSEVSPSQSQQAPLIQSSTSPVSLQFPPEVQGSNVDKRNYALNVLSQLRSQHDLMIQELHNLNQHIQQIDEWLRSSDNENMASEHIKSSTPAVVASGALQT
notes: Fep1, GATA-factor, S. pombe, C-terminal region, amino acids 319-564
Take B1: the binding entry is reported as “binds”.
